Each structure is given as a SMILES string. Some of the results follow. Most values come without repeats; read them as rough.

This passage reports growth results from the supplement of paper PMC8007513.

The assay deals with Saccharomyces cerevisiae BY4743. In words: growth (OD600) relative to untreated control; higher = less growth inhibition. Particulars: compound concentration: 133 uM; 20 h. The protocol:
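NMCCC compounds (133 uM, no IPBC) tested alone against Saccharomyces cerevisiae BY4743 in YPD, 96-well plates, starting OD600 ~0.1. Growth was read as OD600 at 20 h and expressed as % of the untreated control. Single pass.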
`Cc1cc(NC(=O)CSCC(=O)OCc2ccc(-n3cccn3)cc2)no1` returned a growth of 102%. The same measure for `COc1ccc(Cn2ccnc2SCC(=O)NC2CCCCC2)cc1`: 102%.

For `Cc1ccc(NC(=O)C(Sc2nnc(C)n2C)c2ccccc2)cc1` (stereo not drawn), the growth turned out to be 99%. The same measure for `CCOc1ccccc1-n1nnnc1SCC(=O)NC(=O)Cc1ccccc1`: 95.2%; for `Cc1nn(C)c(C)c1NC(=O)CSc1nnc(Nc2ccc(OC(F)(F)F)cc2)s1`: 86%. The same measure for `CSc1nc2nc(C)cc(C(F)(F)F)n2n1`: 109%; for `Cc1ccc(C(C)NC(=O)c2ccnn2C)c(C)c1` (stereo not drawn): 97.4%; for `CC(C)CCNC(=O)c1cnn2c(C(F)(F)F)cc(-c3cccs3)nc12`: 94.2%. The same measure for `COc1cc(OC)c(NC(=O)CCNS(=O)(=O)c2ccc3c(c2)CC(C)N3C(C)=O)cc1Cl` (stereo not drawn): 106%; for `O=C(COC(=O)C1CCN(C(=O)Nc2ccccc2)CC1)c1ccc(Cl)s1`: 100%. As to `COc1ccc(S(=O)(=O)Nc2c(C)cc(C)cc2C)cc1N(C)S(C)(=O)=O`, the growth is 98.7%. `O=C(O)CCc1ccc(-c2ccccc2)n1NC(=O)c1ccc(O)cc1` had a growth of 106%. In the case of `CC(CCc1ccccc1)NC(=O)N(C)Cc1nc(O)c2sccc2n1` (stereo not drawn) it was 93.1%. The same measure for `Cc1ccc(OCC(=O)Nc2cc(-c3ccc(F)c(F)c3)no2)cc1C`: 89.1%; for `COC1=CC=CC2=C1N(CC3=CC=CC(=C3)Cl)\C=C(C#N)/C2=O`: 105%. The compound `COC(=O)c1c(C)[nH]c(C(=O)CN2CCCC2c2cccn2C)c1C` (stereo not drawn) gave a growth of 114%.

With `COc1ccc(C(=O)OC(C)c2ccccc2Cl)cc1S(=O)(=O)N1CCCC1` (stereo not drawn), the growth is 92.9%. The same measure for `CC1=C(C(=O)OCC(C)C)C(/C=C/c2ccccc2)N2C(=O)CCSC2=N1` (stereo not drawn): 104%; for `Cc1csc(SCC(=O)N(C)Cc2ccc(C)o2)n1`: 96.9%; for `Nc1nc(SCc2c(Cl)cccc2Cl)c2[nH]cnc2n1`: 104%.

Compound `CC(C)NC(=O)CCCc1nnc2n(C)c(=O)c3sccc3n12` yielded a growth of 96.7%.

Consider `COc1ccccc1/N=C1\C(Cl)=C(O)OC1OC(=O)c1ccccc1Br` (stereo not drawn), for which the growth came to 107%. In the case of `CCc1nnc(NC(=O)CSc2nccn2Cc2ccco2)s1` it was 101%; in that of `CC(Oc1ccc(NC(=O)c2ccco2)cc1)C(=O)NCc1ccc(Cl)cc1` (stereo not drawn), 107%; in that of `Cc1sc(NC(=O)CSc2ncnc3ccccc23)c(C#N)c1C`, 94.7%. In the case of `CC(C)CN1\C(=C(/C(=O)N(C)C1=O)C2=CSC(=N2)NC3=CC=C(Cl)C=C3)N` it was 88.9%. In the case of `Cc1ccc(S(=O)(=O)N(C)c2ccc(C(=O)Nc3ncccc3O)cc2)cc1` it was 104%; in that of `CCOc1ccc(NC(=O)C2CCCCN2S(=O)(=O)c2ccc(Br)cc2)cc1` (stereo not drawn), 106%; in that of `CNc1nc(-c2ccc(OC(F)F)c(OC)c2)cs1`, 106%. `CCOc1ccc(NC(=O)c2cc(CC)c(C)s2)cc1OC` gave a growth of 105%.

Compound `O=C(Nc1nc[nH]n1)c1ccc(C(F)(F)F)cn1` gave a growth of 103%. In the case of `CCOC1=CC(=CC=C1O)C\2\C(=C(\N)O\C(=C2C#N)C(C)(C)C)C#N` (stereo not drawn) it was 108%; in that of `Oc1cc(C(F)(F)F)c2c(-c3ccccc3)noc2n1`, 100%. For `COC(=O)c1ccc(C(=O)N2CCN(C(=O)c3ccc(OC)cc3)CC2)nc1`, the growth was 110%. Compound `CC(C)C1O\C(=N/C1=O)NC(=O)NC(C)(C)C2=CC=CC(=C2)C(C)=C` (stereo not drawn) showed a growth of 108%. The same measure for `COC(CNC(=O)CN1\N=C(\CC2=CC=NC=C2)C3=CC=CC=C3C1=O)OC`: 102%; for `N#Cc1ccsc1NC(=O)CCSc1nnnn1C1CC1`: 89.5%. The same measure for `CN(C)CCN(Cc1ccccc1)C(=O)Cn1c(=O)oc2ccccc21`: 98.4%.
